{"sequences": {"note": "Chains of the proteins cited; added tags and fusions are not shown. Lines headed by an entry give the natural chain unless they say otherwise; changes in a name come on top.", "UniProt Q8N8A2": "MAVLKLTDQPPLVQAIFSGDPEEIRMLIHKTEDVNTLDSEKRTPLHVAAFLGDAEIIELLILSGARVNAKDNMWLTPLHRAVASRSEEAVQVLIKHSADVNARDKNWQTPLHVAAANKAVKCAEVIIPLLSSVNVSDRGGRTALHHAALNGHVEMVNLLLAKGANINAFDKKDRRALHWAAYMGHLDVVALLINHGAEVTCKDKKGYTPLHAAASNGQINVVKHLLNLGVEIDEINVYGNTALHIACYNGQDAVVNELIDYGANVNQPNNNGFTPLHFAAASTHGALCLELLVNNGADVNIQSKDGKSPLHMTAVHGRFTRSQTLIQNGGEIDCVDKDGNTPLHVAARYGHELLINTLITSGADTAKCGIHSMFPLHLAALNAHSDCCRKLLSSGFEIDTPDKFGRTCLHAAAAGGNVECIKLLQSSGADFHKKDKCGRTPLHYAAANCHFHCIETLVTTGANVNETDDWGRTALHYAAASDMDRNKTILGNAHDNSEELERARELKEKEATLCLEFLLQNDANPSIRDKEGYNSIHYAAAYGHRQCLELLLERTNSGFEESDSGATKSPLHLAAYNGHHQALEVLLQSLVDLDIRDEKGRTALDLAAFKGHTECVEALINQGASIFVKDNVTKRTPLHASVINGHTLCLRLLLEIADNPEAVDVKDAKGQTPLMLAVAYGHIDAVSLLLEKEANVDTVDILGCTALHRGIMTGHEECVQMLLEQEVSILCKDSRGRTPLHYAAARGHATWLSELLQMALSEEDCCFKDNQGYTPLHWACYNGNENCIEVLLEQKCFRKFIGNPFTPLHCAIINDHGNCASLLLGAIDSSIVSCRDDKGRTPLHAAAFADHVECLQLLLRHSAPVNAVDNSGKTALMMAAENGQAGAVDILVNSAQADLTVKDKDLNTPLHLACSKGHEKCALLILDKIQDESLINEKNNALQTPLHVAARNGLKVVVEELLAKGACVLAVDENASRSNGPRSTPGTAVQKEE", "UniProt Q9H6X2": "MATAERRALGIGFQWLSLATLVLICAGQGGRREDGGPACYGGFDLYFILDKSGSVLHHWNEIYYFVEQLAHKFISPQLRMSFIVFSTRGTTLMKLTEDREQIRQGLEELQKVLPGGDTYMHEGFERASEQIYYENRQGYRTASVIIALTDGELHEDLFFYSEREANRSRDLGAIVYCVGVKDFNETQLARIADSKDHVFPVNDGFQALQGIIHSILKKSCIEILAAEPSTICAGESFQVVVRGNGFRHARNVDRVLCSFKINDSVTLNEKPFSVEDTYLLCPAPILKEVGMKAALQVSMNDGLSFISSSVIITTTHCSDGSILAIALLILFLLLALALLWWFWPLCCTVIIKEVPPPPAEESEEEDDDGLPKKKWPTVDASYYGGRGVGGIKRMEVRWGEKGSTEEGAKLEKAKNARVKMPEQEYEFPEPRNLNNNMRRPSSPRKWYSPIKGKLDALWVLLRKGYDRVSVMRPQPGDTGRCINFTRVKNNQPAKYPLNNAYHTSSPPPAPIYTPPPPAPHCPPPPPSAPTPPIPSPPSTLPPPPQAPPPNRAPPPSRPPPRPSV", "UniProt O14617": "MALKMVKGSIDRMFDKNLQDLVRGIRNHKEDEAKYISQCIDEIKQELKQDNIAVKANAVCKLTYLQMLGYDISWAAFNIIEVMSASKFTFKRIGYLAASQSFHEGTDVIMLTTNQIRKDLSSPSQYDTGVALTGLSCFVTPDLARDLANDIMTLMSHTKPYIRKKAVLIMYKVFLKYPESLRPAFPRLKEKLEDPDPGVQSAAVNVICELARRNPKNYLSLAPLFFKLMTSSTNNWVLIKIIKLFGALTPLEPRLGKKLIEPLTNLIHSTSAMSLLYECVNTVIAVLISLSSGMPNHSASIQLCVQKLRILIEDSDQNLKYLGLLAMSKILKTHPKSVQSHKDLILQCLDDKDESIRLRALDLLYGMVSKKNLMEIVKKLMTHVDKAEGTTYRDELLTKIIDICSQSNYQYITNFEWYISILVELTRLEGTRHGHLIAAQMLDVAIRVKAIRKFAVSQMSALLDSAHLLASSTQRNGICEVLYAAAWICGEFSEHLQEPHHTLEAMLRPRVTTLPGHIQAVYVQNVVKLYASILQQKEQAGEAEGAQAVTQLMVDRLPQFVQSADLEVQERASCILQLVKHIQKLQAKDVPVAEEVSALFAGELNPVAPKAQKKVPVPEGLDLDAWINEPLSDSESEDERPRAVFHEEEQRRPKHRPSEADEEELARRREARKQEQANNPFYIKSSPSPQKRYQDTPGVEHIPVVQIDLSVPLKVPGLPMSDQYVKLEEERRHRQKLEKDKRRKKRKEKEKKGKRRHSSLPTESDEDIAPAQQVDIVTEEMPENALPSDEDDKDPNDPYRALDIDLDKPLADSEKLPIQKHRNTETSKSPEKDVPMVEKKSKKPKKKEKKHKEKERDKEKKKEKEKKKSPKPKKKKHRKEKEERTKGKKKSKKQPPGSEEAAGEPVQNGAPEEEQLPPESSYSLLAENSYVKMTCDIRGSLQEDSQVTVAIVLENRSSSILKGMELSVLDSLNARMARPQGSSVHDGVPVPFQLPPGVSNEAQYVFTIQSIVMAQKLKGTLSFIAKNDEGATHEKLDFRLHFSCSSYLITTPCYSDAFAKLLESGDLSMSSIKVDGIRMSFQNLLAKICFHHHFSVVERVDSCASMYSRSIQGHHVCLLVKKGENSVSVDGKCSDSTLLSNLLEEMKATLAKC", "UniProt Q5TZF3": "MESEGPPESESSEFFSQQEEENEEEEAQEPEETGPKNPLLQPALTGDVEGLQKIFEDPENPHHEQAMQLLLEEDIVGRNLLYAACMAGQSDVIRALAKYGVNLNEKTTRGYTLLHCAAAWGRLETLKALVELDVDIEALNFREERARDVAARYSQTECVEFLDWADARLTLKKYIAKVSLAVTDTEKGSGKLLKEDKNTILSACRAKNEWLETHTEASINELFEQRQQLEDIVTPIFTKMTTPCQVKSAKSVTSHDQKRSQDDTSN", "UniProt Q9Y2T2": "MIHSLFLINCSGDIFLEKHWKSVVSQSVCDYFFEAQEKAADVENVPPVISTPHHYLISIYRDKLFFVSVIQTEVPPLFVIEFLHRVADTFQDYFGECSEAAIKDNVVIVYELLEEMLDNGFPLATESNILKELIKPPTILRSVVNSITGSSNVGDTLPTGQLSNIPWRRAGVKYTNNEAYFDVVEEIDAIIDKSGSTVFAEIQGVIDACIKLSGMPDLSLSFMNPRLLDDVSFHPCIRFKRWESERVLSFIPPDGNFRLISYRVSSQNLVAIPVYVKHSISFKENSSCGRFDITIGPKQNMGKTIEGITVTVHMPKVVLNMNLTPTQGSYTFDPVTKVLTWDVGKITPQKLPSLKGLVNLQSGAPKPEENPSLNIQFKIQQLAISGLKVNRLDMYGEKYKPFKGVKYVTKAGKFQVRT", "UniProt Q96CW1": "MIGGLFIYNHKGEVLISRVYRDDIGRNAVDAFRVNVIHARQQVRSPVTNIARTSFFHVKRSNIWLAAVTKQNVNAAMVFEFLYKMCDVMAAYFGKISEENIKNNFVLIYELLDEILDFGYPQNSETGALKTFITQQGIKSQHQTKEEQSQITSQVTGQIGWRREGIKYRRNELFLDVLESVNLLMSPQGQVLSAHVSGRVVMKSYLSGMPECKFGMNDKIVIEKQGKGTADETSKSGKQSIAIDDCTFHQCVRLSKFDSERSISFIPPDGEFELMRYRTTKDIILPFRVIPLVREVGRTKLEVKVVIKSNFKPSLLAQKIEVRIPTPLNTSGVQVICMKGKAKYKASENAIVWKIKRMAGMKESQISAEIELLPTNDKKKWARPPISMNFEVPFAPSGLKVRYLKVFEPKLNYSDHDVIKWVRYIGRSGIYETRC", "UniProt Q9NQW6": "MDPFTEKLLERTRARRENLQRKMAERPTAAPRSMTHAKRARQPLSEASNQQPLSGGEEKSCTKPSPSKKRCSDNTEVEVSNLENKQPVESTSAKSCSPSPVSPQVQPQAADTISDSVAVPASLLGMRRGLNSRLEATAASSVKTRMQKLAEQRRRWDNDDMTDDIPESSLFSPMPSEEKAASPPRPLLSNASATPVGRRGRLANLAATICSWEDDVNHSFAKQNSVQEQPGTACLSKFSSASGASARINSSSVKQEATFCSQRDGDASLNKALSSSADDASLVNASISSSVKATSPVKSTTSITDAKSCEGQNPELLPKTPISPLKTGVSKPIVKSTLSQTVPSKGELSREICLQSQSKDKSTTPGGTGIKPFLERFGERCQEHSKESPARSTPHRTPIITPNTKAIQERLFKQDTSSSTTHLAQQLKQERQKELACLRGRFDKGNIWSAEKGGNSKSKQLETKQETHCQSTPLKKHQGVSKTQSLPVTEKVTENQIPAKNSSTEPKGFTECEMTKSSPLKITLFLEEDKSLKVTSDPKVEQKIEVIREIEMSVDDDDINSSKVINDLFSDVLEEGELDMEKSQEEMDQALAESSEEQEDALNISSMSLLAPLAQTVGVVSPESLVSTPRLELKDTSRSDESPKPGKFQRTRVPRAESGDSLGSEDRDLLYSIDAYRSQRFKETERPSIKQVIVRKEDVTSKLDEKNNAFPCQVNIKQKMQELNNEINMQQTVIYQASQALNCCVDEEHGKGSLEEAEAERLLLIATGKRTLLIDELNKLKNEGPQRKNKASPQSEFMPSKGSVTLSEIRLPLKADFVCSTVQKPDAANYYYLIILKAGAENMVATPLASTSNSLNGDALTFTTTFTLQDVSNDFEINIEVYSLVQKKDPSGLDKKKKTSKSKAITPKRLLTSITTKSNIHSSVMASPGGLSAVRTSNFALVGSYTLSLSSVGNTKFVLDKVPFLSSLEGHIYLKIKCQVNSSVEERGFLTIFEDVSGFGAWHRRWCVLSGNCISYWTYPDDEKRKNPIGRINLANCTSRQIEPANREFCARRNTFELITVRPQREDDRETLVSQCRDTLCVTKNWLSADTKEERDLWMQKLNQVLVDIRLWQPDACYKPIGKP", "UniProt Q4KMQ2": "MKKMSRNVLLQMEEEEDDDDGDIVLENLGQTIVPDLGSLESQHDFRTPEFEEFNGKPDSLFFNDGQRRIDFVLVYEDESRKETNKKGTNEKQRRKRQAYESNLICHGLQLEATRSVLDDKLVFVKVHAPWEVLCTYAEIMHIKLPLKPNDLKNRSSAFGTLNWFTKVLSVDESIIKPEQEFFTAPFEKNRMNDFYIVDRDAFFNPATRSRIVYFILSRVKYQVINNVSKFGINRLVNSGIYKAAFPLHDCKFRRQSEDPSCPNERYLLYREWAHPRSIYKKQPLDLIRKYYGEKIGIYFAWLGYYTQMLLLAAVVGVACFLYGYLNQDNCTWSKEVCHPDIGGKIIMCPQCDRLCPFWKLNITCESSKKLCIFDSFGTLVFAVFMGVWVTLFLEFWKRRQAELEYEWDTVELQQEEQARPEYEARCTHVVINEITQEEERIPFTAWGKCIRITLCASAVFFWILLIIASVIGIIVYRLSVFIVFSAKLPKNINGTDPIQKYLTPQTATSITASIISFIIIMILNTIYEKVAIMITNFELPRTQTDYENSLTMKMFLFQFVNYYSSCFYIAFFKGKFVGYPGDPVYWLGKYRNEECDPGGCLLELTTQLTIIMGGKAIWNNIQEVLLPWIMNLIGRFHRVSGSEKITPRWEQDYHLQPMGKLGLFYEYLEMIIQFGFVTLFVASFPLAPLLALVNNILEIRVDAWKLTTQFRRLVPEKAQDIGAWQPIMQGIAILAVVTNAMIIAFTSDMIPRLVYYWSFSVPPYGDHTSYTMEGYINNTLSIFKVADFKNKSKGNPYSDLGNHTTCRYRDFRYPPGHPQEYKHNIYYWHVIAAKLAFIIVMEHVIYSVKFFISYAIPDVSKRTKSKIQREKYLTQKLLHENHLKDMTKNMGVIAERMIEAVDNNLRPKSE", "UniProt Q7Z5R6": "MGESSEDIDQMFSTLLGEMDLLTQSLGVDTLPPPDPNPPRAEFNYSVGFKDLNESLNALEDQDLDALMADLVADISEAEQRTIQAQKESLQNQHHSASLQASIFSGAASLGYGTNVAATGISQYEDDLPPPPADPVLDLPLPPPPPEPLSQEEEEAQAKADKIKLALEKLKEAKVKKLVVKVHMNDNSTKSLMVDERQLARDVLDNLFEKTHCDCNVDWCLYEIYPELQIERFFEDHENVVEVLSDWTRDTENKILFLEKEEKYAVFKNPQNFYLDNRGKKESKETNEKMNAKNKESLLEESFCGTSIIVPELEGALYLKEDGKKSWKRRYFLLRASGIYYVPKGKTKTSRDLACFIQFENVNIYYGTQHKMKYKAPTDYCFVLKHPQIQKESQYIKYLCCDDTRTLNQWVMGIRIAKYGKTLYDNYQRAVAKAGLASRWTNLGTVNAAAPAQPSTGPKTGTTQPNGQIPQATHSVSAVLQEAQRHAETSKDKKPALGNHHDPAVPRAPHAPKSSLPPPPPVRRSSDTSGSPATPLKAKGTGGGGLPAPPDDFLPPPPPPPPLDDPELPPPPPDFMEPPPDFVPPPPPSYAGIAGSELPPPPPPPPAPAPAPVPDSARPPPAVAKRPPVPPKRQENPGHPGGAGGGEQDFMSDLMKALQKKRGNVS"}, "source": "the supplement of paper PMC12067093", "about": "“Discovery and optimisation of a covalent ligand for TRIM25 and its application to targeted protein ubiquitination” (Chemical Science, 2025)", "note": "This is one part of the list.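 Also: competitive chemoproteomic profiling in live THP-1 cells with an iodoacetamide desthiobiotin (IA-DTB) probe, comparing probe-labelled peptide intensities in compound-treated cells against DMSO-treated controls.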", "data": [{"compound": "CC1Cc2ccccc2N1C(=O)C1CCCN(C1)C(=O)CCl (mixture of isomers) [TRIM25 ligand 11 (diastereomer mixture)]", "test": "probe-labelled cysteine peptide fold change vs DMSO (competition) (log2 fold change); higher = less target engagement (more negative = stronger competition)", "details": "10 µM; THP-1; incubation time: 4 h", "values": [{"target": "ANKRD44_Q8N8A2_420_TCLHAAAAGGNVECIK (UniProt Q8N8A2)", "probe-labelled cysteine peptide fold change": -0.0346}, {"target": "ANTXR1_Q9H6X2_257_VLCSFK (UniProt Q9H6X2)", "probe-labelled cysteine peptide fold change": 0.067}, {"target": "ANKHD1_Q8IWZ3_643_ATANNDHTVVSLACAGGHLAVVELLLAHGADPTHR (UniProt Q8IWZ3)", "probe-labelled cysteine peptide fold change": 0.00811}, {"target": "AP3D1_O14617_1133_CSDSTLLSNLLEEMK (UniProt O14617)", "probe-labelled cysteine peptide fold change": 0.0919}, {"target": "ANKRD45_Q5TZF3_116_GYTLLHCAAAWGR (UniProt Q5TZF3)", "probe-labelled cysteine peptide fold change": -0.147}, {"target": "ANXA7_P20073_285_VLIEILCTR (UniProt P20073)", "probe-labelled cysteine peptide fold change": -0.00762}, {"target": "ANKRD44_Q8N8A2_408_TCLHAAAAGGNVECIK (UniProt Q8N8A2)", "probe-labelled cysteine peptide fold change": 0.166}, {"target": "AP3M1_Q9Y2T2_209_SGSTVFAEIQGVIDACIK (UniProt Q9Y2T2)", "probe-labelled cysteine peptide fold change": -0.0345}, {"target": "AP2M1_Q96CW1_337_IPTPLNTSGVQVICMK (UniProt Q96CW1)", "probe-labelled cysteine peptide fold change": 0.0113}, {"target": "AP2A2_O94973_903_TTQIGCLLR (UniProt O94973)", "probe-labelled cysteine peptide fold change": -0.0291}, {"target": "ANKRD17_O75179_564_AGADIELGCSTPLMEAAQEGHLELVK (UniProt O75179)", "probe-labelled cysteine peptide fold change": 0.236}, {"target": "AP2M1_Q96CW1_212_SYLSGMPECK (UniProt Q96CW1)", "probe-labelled cysteine peptide fold change": 0.00293}, {"target": "ANLN_Q9NQW6_437_ELACLR (UniProt Q9NQW6)", "probe-labelled cysteine peptide fold change": -0.177}, {"target": "ANKHD1_Q8IWZ3_2518_VIQNSTECTDAQQIWPGTWAPHIGNMHLK (UniProt Q8IWZ3)", "probe-labelled cysteine peptide fold change": 0.158}, {"target": "ANO6_Q4KMQ2_250_AAFPLHDCK (UniProt Q4KMQ2)", "probe-labelled cysteine peptide fold change": 0.0116}, {"target": "ANKRD17_O75179_644_AGHVCTVQFLISK (UniProt O75179)", "probe-labelled cysteine peptide fold change": -0.0225}, {"target": "APAF1_O14727_1083+1091_DFVCHQGTVLSCDISHDATK (UniProt O14727)", "probe-labelled cysteine peptide fold change": 0.161}, {"target": "APBB1IP_Q7Z5R6_215_THCDCNVDWCLYEIYPELQIER (UniProt Q7Z5R6)", "probe-labelled cysteine peptide fold change": -0.235}, {"target": "ANKHD1_Q8IWZ3_213_SLAEACSDGDVNAVRK (UniProt Q8IWZ3)", "probe-labelled cysteine peptide fold change": -0.0766}, {"target": "AP2A2_O94973_353_YLALESMCTLASSEFSHEAVK (UniProt O94973)", "probe-labelled cysteine peptide fold change": 0.0765}, {"target": "ANKLE2_Q86XL3_454_TPEDVICER (UniProt Q86XL3)", "probe-labelled cysteine peptide fold change": -0.0494}, {"target": "ANKRD44_Q8N8A2_368+388_CGIHSMFPLHLAALNAHSDCCR (UniProt Q8N8A2)", "probe-labelled cysteine peptide fold change": -0.463}]}, {"compound": "CC1Cc2ccccc2N1C(=O)C1CCCN(C1)C(=O)CCl (mixture of isomers) [TRIM25 ligand 11 (diastereomer mixture)]", "test": "probe-labelled cysteine peptide fold change vs DMSO (competition) (log2 fold change); higher = less target engagement (more negative = stronger competition)", "details": "50 µM; THP-1; incubation time: 4 h", "values": [{"target": "AP1B1_Q10567_930_CRAPEVSQHVYQAYETILK (UniProt Q10567)", "probe-labelled cysteine peptide fold change": -0.125}, {"target": "APIP_Q96GX9_188_MAHAMNEYPDSCAVLVR (UniProt Q96GX9)", "probe-labelled cysteine peptide fold change": 0.183}, {"target": "APEH_P13798_312_LSPDQCR (UniProt P13798)", "probe-labelled cysteine peptide fold change": 0.0848}, {"target": "ANXA6_P08133_59_QEVCQSYK (UniProt P08133)", "probe-labelled cysteine peptide fold change": -0.0296}, {"target": "APC_P25054_661_ENNCLQTLLQHLK (UniProt P25054)", "probe-labelled cysteine peptide fold change": 0.0643}, {"target": "AP1B1_Q10567_57_DVSALFPDVVNCMQTDNLELK (UniProt Q10567)", "probe-labelled cysteine peptide fold change": 0.139}, {"target": "AP2A1_O95782_225_TCVSLAVSR (UniProt O95782)", "probe-labelled cysteine peptide fold change": 0.0067}, {"target": "ANKRD39_Q53RE8_107_ASYCGHTEIAR (UniProt Q53RE8)", "probe-labelled cysteine peptide fold change": 0.0148}, {"target": "AP1M1_Q9BXS5_241_FHQCVR (UniProt Q9BXS5)", "probe-labelled cysteine peptide fold change": 0.482}, {"target": "ANKRD44_Q8N8A2_615_GHTECVEALINQGASIFVK (UniProt Q8N8A2)", "probe-labelled cysteine peptide fold change": 0.0676}, {"target": "AOC1_P19801_417_ALCLFEMPTGVPLRR (UniProt P19801)", "probe-labelled cysteine peptide fold change": 0.0773}, {"target": "ANKRD44_Q8N8A2_921_CALLILDK (UniProt Q8N8A2)", "probe-labelled cysteine peptide fold change": -0.0466}, {"target": "ANKRD50_Q9ULJ7_113_QALAFHFCK (UniProt Q9ULJ7)", "probe-labelled cysteine peptide fold change": 0.778}, {"target": "ANKFY1_Q9P2R3_389_TPLHVSIMAGNEYVFSQLLQCK (UniProt Q9P2R3)", "probe-labelled cysteine peptide fold change": -0.184}, {"target": "AP4B1_Q9Y6B7_534_ILCSPK (UniProt Q9Y6B7)", "probe-labelled cysteine peptide fold change": -0.00258}, {"target": "AP3M1_Q9Y2T2_10_MIHSLFLINCSGDIFLEK (UniProt Q9Y2T2)", "probe-labelled cysteine peptide fold change": 0.0501}, {"target": "APAF1_O14727_662+663_AHEDEVLCCAFSTDDR (UniProt O14727)", "probe-labelled cysteine peptide fold change": 0.213}, {"target": "ANKRD44_Q8N8A2_420_TCLHAAAAGGNVECIK (UniProt Q8N8A2)", "probe-labelled cysteine peptide fold change": -0.0123}, {"target": "ANTXR1_Q9H6X2_257_VLCSFK (UniProt Q9H6X2)", "probe-labelled cysteine peptide fold change": 0.257}, {"target": "ANKHD1_Q8IWZ3_643_ATANNDHTVVSLACAGGHLAVVELLLAHGADPTHR (UniProt Q8IWZ3)", "probe-labelled cysteine peptide fold change": 0.121}, {"target": "AP3D1_O14617_1133_CSDSTLLSNLLEEMK (UniProt O14617)", "probe-labelled cysteine peptide fold change": 0.0779}, {"target": "ANKRD45_Q5TZF3_116_GYTLLHCAAAWGR (UniProt Q5TZF3)", "probe-labelled cysteine peptide fold change": 0.0731}, {"target": "ANXA7_P20073_285_VLIEILCTR (UniProt P20073)", "probe-labelled cysteine peptide fold change": 0.0533}, {"target": "ANKRD44_Q8N8A2_408_TCLHAAAAGGNVECIK (UniProt Q8N8A2)", "probe-labelled cysteine peptide fold change": -0.0433}, {"target": "AP3M1_Q9Y2T2_209_SGSTVFAEIQGVIDACIK (UniProt Q9Y2T2)", "probe-labelled cysteine peptide fold change": 0.218}, {"target": "AP2M1_Q96CW1_337_IPTPLNTSGVQVICMK (UniProt Q96CW1)", "probe-labelled cysteine peptide fold change": 0.0203}, {"target": "AP2A2_O94973_903_TTQIGCLLR (UniProt O94973)", "probe-labelled cysteine peptide fold change": 0.025}, {"target": "ANKRD17_O75179_564_AGADIELGCSTPLMEAAQEGHLELVK (UniProt O75179)", "probe-labelled cysteine peptide fold change": 0.0516}, {"target": "AP2M1_Q96CW1_212_SYLSGMPECK (UniProt Q96CW1)", "probe-labelled cysteine peptide fold change": -0.0213}, {"target": "ANLN_Q9NQW6_437_ELACLR (UniProt Q9NQW6)", "probe-labelled cysteine peptide fold change": -0.148}, {"target": "ANKHD1_Q8IWZ3_2518_VIQNSTECTDAQQIWPGTWAPHIGNMHLK (UniProt Q8IWZ3)", "probe-labelled cysteine peptide fold change": -0.0333}, {"target": "ANO6_Q4KMQ2_250_AAFPLHDCK (UniProt Q4KMQ2)", "probe-labelled cysteine peptide fold change": 0.0223}, {"target": "ANKRD17_O75179_644_AGHVCTVQFLISK (UniProt O75179)", "probe-labelled cysteine peptide fold change": -0.0531}, {"target": "APAF1_O14727_1083+1091_DFVCHQGTVLSCDISHDATK (UniProt O14727)", "probe-labelled cysteine peptide fold change": 0.0542}, {"target": "APBB1IP_Q7Z5R6_215_THCDCNVDWCLYEIYPELQIER (UniProt Q7Z5R6)", "probe-labelled cysteine peptide fold change": -0.124}, {"target": "ANKHD1_Q8IWZ3_213_SLAEACSDGDVNAVRK (UniProt Q8IWZ3)", "probe-labelled cysteine peptide fold change": -0.0775}, {"target": "AP2A2_O94973_353_YLALESMCTLASSEFSHEAVK (UniProt O94973)", "probe-labelled cysteine peptide fold change": 0.0277}, {"target": "ANKLE2_Q86XL3_454_TPEDVICER (UniProt Q86XL3)", "probe-labelled cysteine peptide fold change": -0.0269}, {"target": "ANKRD44_Q8N8A2_368+388_CGIHSMFPLHLAALNAHSDCCR (UniProt Q8N8A2)", "probe-labelled cysteine peptide fold change": -0.104}]}]}
